{"source": "PubChem BioAssay AID493014", "about": "(National Center for Advancing Translational Sciences (NCATS), 2011)", "note": "Screen size: about 340,000 compounds; about 170 (0.05%) were called active. The inconclusive results got no clear call from the source; some entries with a clear call stand among them for comparison. Calls follow the shape of the dose curve; as a rule, active = well fitted inhibition curve with a large enough effect in the signal ratio, with a control signal flat (not every such curve was filed as active); inconclusive = small, poorly fitted or top-dose-only effect, or effect the other way, or a change in a side signal; inactive = flat fitted curve, though single readings scatter; the % refers to the signal ratio. Potencies of inconclusive entries are doubtful fits and often do not repeat. Potency is read from the fitted curve at half-maximal effect."}
{"test": "qHTS Assay to Find Inhibitors of Chronic Active B-Cell Receptor Signaling;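 as to activity change, negative = inhibition: plate controls were basal doxycycline-induced cells for no effect and cells given 10 µM MG132 for full effect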", "conditions": "ABC-DLBCL IkBa-CBG/CBR reporter, luminescence ratio (green luciferase fused to IkBa over red control in TMD8 lymphoma cells), 4 h; activity change, negative = inhibition: at 46.1 µM (top of the series)", "outline": "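Compounds up to 46 uM were incubated four hours with TMD8 cells whose green CBG68 luciferase is fused to IkappaBalpha; red CBR luminescence normalised the signal, and concentration-effect curves were fitted to fusion, red and ratio data.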"}
{"smiles": "Cc1ccc(NC(=O)c2noc3c2CCCCC3)cc1", "Potency": "inconclusive: 17.8 µM [falling, single point]"}
{"smiles": "Cc1ccc(-c2noc(-c3ccccc3C(=O)N3CCOCC3)n2)cc1", "activity change, negative = inhibition": "inconclusive: 14.7%"}
{"smiles": "O=C(N/N=C/C(Br)=C/c1ccccc1)C1CC1", "activity change, negative = inhibition": "inconclusive: -15.6%"}
{"smiles": "CN(C)/N=C/c1cn(-c2ccccc2)nc1-c1cccnc1", "activity change, negative = inhibition": "inconclusive: 1.39%"}
{"smiles": "CSc1nc2c(sc3ccccc32)c(=O)n1Cc1ccc(C)cc1", "activity change, negative = inhibition": "inconclusive: -1.6%"}
{"smiles": "COc1ccc(-c2n[nH]c(=S)n2-c2ccc(C)cc2)cc1OC", "activity change, negative = inhibition": "inconclusive: 1.07%"}
{"smiles": "O=C(N=C1SCC(=O)N1c1ccccc1Cl)c1ccco1", "activity change, negative = inhibition": "inactive: -2.88%"}
{"smiles": "C/C(=N\\NC(=O)c1ccccc1)c1cccc(Br)c1", "Potency": "inconclusive: 35.5 µM [rising, single point]"}
{"smiles": "CCc1ccc(/C=C2/C(=O)N(CC)C(=S)N2C)s1", "activity change, negative = inhibition": "inconclusive: 2.16%"}
{"smiles": "COC(=O)c1ccccc1NC(=O)c1sc(Cl)nc1C", "activity change, negative = inhibition": "inconclusive: -0.735%"}
{"smiles": "COc1ccc(Cc2n[nH]c(=O)c3ccccc23)cc1OC", "Potency": "inconclusive: 11.2 µM [falling, partial curve]"}
{"smiles": "CCOC(=O)C1(Cc2cccc(OC)c2)CCN(C2CCOCC2)CC1", "Potency": "inconclusive: 35.5 µM [falling, single point]"}
{"smiles": "CC/C(=N\\NC(=S)Nc1cccc(C)c1)c1ccccc1", "Potency": "inconclusive: 5.62 µM [cytotoxic, single point]"}
{"smiles": "CCN(C(=S)NCc1ccccc1)c1cccc2ccccc12", "activity change, negative = inhibition": "inactive: 4.38%"}
{"smiles": "O=[N+]([O-])c1ccc(CS(=O)(=O)N2CCN(c3ccccc3)CC2)cc1", "activity change, negative = inhibition": "inconclusive: -1.28%"}
{"smiles": "COC(=O)c1ccc(N=C2SCC(=O)N2C)cc1", "activity change, negative = inhibition": "inconclusive: 0.572%"}
{"smiles": "CC(=O)N1N=C(c2c(-c3ccccc3)c3cc(C)ccc3[nH]c2=O)CC1c1ccco1", "note": "(configuration not stated)", "activity change, negative = inhibition": "inconclusive: -1.76%"}
{"smiles": "C/C(N)=C(/C#N)C(=O)CSc1cc(Cl)ccc1Cl", "activity change, negative = inhibition": "inconclusive: -4.07%"}
{"smiles": "C[C@@]12C(=O)N(c3cccc(Cl)c3)C(=O)N1[C@H](c1ccc(Cl)cc1)[C@@H]1C(=O)N(C3CCCCC3)C(=O)[C@@H]12", "activity change, negative = inhibition": "inconclusive: 15.4%"}
{"smiles": "Cc1nc2ccccc2c2oc(C(=O)N3CCN(c4ccc([N+](=O)[O-])cc4)CC3)cc12", "activity change, negative = inhibition": "inconclusive: -0.206%"}
{"smiles": "CCN(Cc1ccccc1)Cc1nc(CCc2ccccc2)no1", "activity change, negative = inhibition": "inconclusive: 16.5%"}
{"smiles": "Cc1ccc(NC(=O)CNc2cccc(S(=O)(=O)N3CCOCC3)c2)cc1F", "activity change, negative = inhibition": "inconclusive: -10.1%"}
{"smiles": "O=C1CCCN1c1ccc(C(=O)N(Cc2nnc(-c3ccccc3Cl)o2)C2CC2)cc1", "activity change, negative = inhibition": "inconclusive: -15%"}
{"smiles": "O=C(NC(Cc1ccccc1)C(=O)O)/C(=C\\c1ccc(Br)cc1)NC(=O)c1ccc(Br)o1", "note": "(configuration not stated)", "activity change, negative = inhibition": "inconclusive: -0.959%"}
{"smiles": "O=C(CSc1nc(=O)n(Cc2ccncc2)c2c1CCC2)Nc1ccc(F)cc1F", "activity change, negative = inhibition": "inconclusive: 9.82%"}
{"smiles": "CCN(CC)c1nc(C#N)cc(-c2ccc(OC)cc2)n1", "activity change, negative = inhibition": "inconclusive: -0.657%"}
{"smiles": "CN(C)c1ccc(N2CC(C)(C)C2=O)cc1", "activity change, negative = inhibition": "inconclusive: 5.69%"}
{"smiles": "COc1ccc(-c2c(C#Cc3ccsc3)c3cc(-c4ccc(OC)nc4)ccc3n2C)cc1", "activity change, negative = inhibition": "inconclusive: -0.454%"}
{"smiles": "O=C(Nc1nc2ccccc2[nH]1)C1CCCO1", "note": "(configuration not stated)", "activity change, negative = inhibition": "inactive: -4.8%"}
{"smiles": "O=C(NC(=S)NCCC1=CCCCC1)c1ccc(Br)o1", "activity change, negative = inhibition": "inconclusive: 8.92%"}
{"smiles": "Cc1cccc(CNc2ncnc3ccc(-c4ccc5c(ccn5C)c4)cc23)c1", "Potency": "inconclusive: 18.4 µM [falling, single point]"}
{"smiles": "CSCCC(NC(=O)c1ccc(Cl)c([N+](=O)[O-])c1)C(=O)N1CCN(C/C=C/c2ccccc2)CC1", "note": "(configuration not stated)", "activity change, negative = inhibition": "inconclusive: 3.63%"}
{"smiles": "N#Cc1c(N)nc(SCC(=O)OCc2ccccc2)c(C#N)c1-c1ccco1", "activity change, negative = inhibition": "inconclusive: 1.03%"}
{"smiles": "Cc1ccc(C(=O)ON=C2CCN(c3ccc([N+](=O)[O-])cc3)CC2)cc1", "activity change, negative = inhibition": "inactive: 6.56%"}
{"smiles": "O=C(CCN1C(=O)c2ccccc2C1=O)OCN1C(=O)c2ccccc2C1=O", "activity change, negative = inhibition": "inconclusive: 23.9%"}
{"smiles": "O=C1c2ccccc2C(Nc2ccc(F)c(Cl)c2)N1Cc1ccco1", "note": "(configuration not stated)", "Potency": "inconclusive: 20.6 µM [falling, partial curve]"}
{"smiles": "COc1ccc(-c2nc(CN3CCN(c4ncnc5ccccc45)CC3)c(C)o2)c(OC)c1", "Potency": "inconclusive: 22.4 µM [falling, single point]"}
{"smiles": "NS(=O)(=O)c1cccc(NC(=O)COC(=O)COc2ccc3ccccc3c2)c1", "activity change, negative = inhibition": "inconclusive: 6.7%"}
{"smiles": "Cc1sc(NC(=O)CN(Cc2ccc(F)cc2)C(=O)C(C)(C)C)c(C(N)=O)c1C", "activity change, negative = inhibition": "inactive: 0.488%"}
{"smiles": "O=C(Nc1ccccc1Cl)c1cc2ccccc2o/c1=N\\O", "activity change, negative = inhibition": "inconclusive: -3.23%"}
{"smiles": "O=C(/C=C/c1cccc([N+](=O)[O-])c1)NC(=S)Nc1ccc(CN2CCOCC2)cc1", "activity change, negative = inhibition": "inactive: 1.37%"}
{"smiles": "O=C(NCCCN1CCOCC1)c1ccc2c(c1)N(Cc1cccc(Cl)c1)C(=O)c1ccccc1S2", "activity change, negative = inhibition": "inconclusive: -0.753%"}
